This test concerns the target T1, DCBLD2 with double label of Flag-strep (UniProt Q96PD2).
T1 sequence: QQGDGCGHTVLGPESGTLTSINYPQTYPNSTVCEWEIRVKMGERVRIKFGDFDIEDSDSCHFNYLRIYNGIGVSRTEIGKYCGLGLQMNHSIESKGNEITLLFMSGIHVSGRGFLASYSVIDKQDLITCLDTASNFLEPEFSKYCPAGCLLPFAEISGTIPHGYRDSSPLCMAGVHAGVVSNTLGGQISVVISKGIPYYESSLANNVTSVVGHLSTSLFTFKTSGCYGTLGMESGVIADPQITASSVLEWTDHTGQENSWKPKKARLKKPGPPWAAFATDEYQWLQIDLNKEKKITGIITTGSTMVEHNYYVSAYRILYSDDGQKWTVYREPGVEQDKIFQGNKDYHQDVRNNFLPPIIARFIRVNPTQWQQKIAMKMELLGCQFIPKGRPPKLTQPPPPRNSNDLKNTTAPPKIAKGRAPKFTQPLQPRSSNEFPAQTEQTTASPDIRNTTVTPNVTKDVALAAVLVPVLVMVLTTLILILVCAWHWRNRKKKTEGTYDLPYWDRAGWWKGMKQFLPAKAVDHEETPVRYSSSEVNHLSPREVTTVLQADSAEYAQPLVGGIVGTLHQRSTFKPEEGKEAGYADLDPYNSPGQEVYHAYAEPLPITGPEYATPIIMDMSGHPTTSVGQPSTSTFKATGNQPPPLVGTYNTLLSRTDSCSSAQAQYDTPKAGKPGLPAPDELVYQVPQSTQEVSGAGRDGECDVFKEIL
Put plainly: affinity purification with mass spectrometry; TAP-MS: Flag-strep DCBLD2 overexpressed in HCT116 by lentivirus; lysate purified in two steps by streptactin resin and anti-flag antibody; eluates digested with trypsin, LC-MS/MS; proteins of the control group subtracted.

Amino acid sequences for entries named in this document (tags omitted). A change or cut given only in a name is not applied to a line headed by its entry.
UniProt P12814: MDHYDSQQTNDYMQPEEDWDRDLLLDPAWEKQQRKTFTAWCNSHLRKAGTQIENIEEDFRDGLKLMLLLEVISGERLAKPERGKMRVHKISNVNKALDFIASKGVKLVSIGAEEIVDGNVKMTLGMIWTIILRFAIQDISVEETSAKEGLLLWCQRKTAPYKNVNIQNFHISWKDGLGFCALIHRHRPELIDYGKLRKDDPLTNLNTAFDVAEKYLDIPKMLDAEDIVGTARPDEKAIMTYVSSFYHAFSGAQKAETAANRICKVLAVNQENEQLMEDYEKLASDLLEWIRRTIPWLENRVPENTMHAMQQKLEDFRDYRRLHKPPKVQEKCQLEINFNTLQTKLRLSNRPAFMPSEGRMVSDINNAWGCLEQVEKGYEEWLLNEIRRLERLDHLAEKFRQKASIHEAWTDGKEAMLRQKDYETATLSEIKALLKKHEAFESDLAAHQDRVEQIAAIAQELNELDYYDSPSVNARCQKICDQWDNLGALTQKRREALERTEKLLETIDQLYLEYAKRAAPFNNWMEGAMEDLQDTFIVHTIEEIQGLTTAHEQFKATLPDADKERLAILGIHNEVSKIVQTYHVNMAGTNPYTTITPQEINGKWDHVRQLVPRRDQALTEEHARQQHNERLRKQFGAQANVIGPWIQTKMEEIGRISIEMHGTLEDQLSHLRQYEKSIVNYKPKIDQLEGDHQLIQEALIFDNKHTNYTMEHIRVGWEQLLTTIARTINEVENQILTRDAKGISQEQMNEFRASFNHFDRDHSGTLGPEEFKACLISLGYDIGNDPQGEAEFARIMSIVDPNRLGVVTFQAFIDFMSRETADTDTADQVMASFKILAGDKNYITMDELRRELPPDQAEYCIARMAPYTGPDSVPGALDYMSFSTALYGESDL
UniProt P21333: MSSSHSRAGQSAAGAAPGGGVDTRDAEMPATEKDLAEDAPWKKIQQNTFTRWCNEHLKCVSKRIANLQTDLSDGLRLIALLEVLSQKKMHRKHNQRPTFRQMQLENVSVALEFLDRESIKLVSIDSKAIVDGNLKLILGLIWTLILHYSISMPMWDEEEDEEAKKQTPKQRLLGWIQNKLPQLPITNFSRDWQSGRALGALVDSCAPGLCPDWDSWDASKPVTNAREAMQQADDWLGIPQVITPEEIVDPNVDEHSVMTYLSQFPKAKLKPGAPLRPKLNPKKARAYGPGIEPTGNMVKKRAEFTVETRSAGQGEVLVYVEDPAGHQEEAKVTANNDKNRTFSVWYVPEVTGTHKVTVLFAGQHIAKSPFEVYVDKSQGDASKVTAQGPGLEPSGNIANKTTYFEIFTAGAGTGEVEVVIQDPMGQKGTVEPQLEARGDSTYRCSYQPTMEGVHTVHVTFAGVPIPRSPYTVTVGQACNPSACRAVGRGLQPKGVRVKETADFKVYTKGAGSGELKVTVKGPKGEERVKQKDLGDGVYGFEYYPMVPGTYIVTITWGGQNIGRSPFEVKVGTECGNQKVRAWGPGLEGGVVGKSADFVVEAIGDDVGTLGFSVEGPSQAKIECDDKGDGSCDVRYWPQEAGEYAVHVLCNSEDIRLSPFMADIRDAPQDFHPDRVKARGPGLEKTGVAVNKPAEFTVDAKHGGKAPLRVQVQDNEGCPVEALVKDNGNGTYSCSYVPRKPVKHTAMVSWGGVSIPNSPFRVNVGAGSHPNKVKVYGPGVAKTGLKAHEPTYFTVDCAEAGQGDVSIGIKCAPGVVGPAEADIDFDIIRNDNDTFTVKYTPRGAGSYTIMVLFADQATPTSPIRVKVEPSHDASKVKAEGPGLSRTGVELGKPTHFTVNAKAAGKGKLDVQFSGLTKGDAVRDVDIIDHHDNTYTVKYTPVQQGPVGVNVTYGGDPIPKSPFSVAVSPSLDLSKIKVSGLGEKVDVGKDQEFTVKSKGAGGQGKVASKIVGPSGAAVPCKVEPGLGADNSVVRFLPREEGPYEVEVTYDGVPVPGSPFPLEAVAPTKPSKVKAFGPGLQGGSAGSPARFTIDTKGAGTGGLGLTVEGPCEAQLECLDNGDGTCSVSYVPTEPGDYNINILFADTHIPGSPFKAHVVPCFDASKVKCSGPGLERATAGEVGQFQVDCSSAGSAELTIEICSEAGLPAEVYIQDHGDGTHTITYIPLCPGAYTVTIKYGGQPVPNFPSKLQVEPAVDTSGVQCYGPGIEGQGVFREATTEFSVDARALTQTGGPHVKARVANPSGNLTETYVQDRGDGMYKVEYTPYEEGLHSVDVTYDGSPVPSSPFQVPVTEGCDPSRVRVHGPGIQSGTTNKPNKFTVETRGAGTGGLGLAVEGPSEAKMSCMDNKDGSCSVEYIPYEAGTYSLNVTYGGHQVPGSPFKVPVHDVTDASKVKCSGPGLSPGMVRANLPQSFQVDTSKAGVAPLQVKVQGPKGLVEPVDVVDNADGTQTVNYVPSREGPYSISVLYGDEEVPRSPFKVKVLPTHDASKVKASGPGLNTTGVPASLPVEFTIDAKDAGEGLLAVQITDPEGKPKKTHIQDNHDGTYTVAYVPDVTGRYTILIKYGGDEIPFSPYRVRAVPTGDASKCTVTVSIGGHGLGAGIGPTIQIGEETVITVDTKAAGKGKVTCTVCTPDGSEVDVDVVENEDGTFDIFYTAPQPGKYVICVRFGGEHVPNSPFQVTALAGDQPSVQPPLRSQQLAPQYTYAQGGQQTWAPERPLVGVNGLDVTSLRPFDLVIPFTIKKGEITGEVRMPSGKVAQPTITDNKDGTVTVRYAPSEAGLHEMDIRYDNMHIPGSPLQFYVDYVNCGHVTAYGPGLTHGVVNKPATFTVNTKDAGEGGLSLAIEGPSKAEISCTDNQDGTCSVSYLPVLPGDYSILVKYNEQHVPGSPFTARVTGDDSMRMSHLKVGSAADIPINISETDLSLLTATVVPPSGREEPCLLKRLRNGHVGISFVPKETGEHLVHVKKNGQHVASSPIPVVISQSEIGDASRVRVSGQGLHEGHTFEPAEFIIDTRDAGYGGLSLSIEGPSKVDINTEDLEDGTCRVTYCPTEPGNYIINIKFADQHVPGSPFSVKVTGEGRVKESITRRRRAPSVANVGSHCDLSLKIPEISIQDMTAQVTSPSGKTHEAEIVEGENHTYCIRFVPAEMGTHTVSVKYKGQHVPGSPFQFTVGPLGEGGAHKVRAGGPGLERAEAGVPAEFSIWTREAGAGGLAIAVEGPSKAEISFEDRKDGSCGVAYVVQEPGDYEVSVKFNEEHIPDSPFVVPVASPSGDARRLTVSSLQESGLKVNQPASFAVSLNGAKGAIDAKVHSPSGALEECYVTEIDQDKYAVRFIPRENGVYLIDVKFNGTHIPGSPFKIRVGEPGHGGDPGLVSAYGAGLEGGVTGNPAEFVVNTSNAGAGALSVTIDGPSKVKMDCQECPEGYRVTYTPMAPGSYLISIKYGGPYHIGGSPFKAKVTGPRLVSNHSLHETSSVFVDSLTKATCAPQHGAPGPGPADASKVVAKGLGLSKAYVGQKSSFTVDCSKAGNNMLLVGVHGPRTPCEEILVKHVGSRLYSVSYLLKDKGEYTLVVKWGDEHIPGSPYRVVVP
UniProt P05556: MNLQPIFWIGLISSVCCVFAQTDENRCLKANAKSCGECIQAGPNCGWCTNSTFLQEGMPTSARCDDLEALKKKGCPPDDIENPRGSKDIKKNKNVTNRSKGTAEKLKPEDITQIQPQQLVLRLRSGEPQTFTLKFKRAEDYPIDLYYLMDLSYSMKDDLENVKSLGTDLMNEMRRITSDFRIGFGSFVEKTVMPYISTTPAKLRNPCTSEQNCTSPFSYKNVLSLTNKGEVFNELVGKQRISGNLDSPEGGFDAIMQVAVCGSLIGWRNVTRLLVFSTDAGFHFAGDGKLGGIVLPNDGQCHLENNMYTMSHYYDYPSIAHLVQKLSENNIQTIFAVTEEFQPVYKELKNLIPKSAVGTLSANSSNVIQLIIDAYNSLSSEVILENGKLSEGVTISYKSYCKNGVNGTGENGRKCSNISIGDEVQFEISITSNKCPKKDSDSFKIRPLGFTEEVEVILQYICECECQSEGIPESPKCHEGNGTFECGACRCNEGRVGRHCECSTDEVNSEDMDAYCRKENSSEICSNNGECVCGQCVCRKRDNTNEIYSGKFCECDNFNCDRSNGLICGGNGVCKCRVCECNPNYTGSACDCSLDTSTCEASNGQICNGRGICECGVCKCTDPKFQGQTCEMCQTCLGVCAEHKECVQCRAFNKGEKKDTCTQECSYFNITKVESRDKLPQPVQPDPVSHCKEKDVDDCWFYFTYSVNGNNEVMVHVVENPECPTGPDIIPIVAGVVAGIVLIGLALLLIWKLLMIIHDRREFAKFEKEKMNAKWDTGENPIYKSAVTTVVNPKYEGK
UniProt O14950: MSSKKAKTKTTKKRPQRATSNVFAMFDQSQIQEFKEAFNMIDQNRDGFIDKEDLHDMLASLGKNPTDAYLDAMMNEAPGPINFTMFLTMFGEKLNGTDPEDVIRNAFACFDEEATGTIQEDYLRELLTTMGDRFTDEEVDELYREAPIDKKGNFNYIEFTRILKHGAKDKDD

These are yes or no findings as the source states them, for the method shown. In cells and extracts the contact can be indirect. A yes stands for co-enrichment or nearness to the bait. Other partners may have been found. Where a sequence is shown, tags or fusion partners need not be part of it.

For the molecule ACTN1 (from UniProt P12814 1-892), the binding result is on record as “binds”. Turning to FLNA (from UniProt P21333 1-2647), the binding result is recorded as “binds”. On to ITGB1 (from UniProt P05556 21-798), for which the binding entry is on record as “binds”. The entry for MYL12B (from UniProt O14950 1-172) is “binds”.

B1: SHC1 (protein, UniProt P29353 1-583)
chain: MDLLPPKPKYNPLRNESLSSLEEGASGSTPPEELPSPSASSLGPILPPLPGDDSPTTLCSFFPRMSNLRLANPAGGRPGSKGEPGRAADDGEGIVGAAMPDSGPLPLLQDMNKLSGGGGRRTRVEGGQLGGEEWTRHGSFVNKPTRGWLHPNDKVMGPGVSYLVRYMGCVEVLQSMRALDFNTRTQVTREAISLVCEAVPGAKGATRRRKPCSRPLSSILGRSNLKFAGMPITLTVSTSSLNLMAADCKQIIANHHMQSISFASGGDPDTAEYVAYVAKDPVNQRACHILECPEGLAQDVISTIGQAFELRFKQYLRNPPKLVTPHDRMAGFDGSAWDEEEEEPPDHQYYNDFPGKEPPLGGVVDMRLREGAAPGAARPTAPNAQTPSHLGATLPVGQPVGGDPEVRKQMPPPPPCPGRELFDDPSYVNVQNLDKARQAVGGAGPPNPAINGSAPRDLFDMKPFEDALRVPPPPQSVSMAEQLRGEPWFHGKLSRREAEALLQLNGDFLVRESTTTPGQYVLTGLQSGQPKHLLLVDPEGVVRTKDHRFESVSHLISYHMDNHLPIISAGSELCLQQPVERKL
B1: the binding entry is “binds”.

For the origin of these results see publication PMC8170045.
